{"source": "paper doi:10.1101/2023.01.10.523387", "binders": {"B1": {"name": "host protein lysine methyltransferase SiL_1451 (endogenous) (enzyme, UniProt F0NBH8 1-161)", "chain": "MSYVPHVPYVPTPEKVVRRMLEIAKVSQDDIVYDLGCGDGRIIITAAKDFNVKKAVGVEINDERIREALANIEKNGVTGRASIVKGNFFEVDISEATVVTMFLLTNVNEMLKPKLEKELKPGTRVVSHEFEIRGWNPKEVIKVEDGNMNHTVYLYVIGEHK"}}, "key": {"[1]": {"molecular_target": "catalytically dead gp37 H47A with a C-terminal histidine tag (SIRV2)", "assay": "pull-down"}, "[2]": {"molecular_target": "plasmid-borne gp37 with a histidine tag attached to the C-terminus (wild type) (SIRV2)", "assay": "pull-down"}}, "note": "No constants are given. Whether binding was seen depends on the method and setting. In cells and extracts the contact can be indirect. A result given as binding can be weak or reduced; the word gives no strength.", "data": [{"binder": "B1", "values": [{"measurement": "binding", "setting": "[1]", "result": "binds"}, {"measurement": "binding", "setting": "[2]", "result": "binds"}]}]}
